In patent US20140011853A1, “SUBSTITUTED 3-(BIPHENYL-3-YL)-8,8-DIFLUORO-4-HYDROXY-1-AZASPIRO[4.5]DEC-3-EN-2-ONES FOR THERAPY” (BAYER INTELLECTUAL PROPERTY GMBH, priority 2011, published 2014):
Some of these results come from one statement about several compounds together. Some compounds share one range, which may span the group rather than tell each member.

How the values were obtained:
Type in all cases: in vivo
Echinocloa crus-galli [1] = assay: Herbicidal post-emergence action; conditions: 80 g/ha, about 3 weeks
Setaria viridis [2] = assay: Herbicidal post-emergence action; conditions: 80 g/ha, about 3 weeks
Lolium multiflorum [3] = assay: Herbicidal post-emergence action; conditions: 80 g/ha, about 3 weeks
Alopecurus myosuroides [4] = assay: Herbicidal post-emergence action; conditions: 80 g/ha, about 3 weeks
Alopecurus myosuroides [5] = assay: Herbicidal pre-emergence action; conditions: 320 g/ha of a.i., about 3 weeks
Lolium multiflorum [6] = assay: Herbicidal pre-emergence action; conditions: 320 g/ha of a.i., about 3 weeks
Setaria viridis [7] = assay: Herbicidal pre-emergence action; conditions: 320 g/ha of a.i., about 3 weeks
Echinocloa crus-galli [8] = assay: Herbicidal pre-emergence action; conditions: 320 g/ha of a.i., about 3 weeks

Measured: herbicidal activity

Cc1ccc(-c2ccc(F)cc2)cc1C1=C(O)C2(CCC(F)(F)CC2)NC1=O [Example 1-3, 8,8-Difluoro-3-(4′-fluoro-4-methylbiphenyl-3-yl)-4-hydroxy-1-azaspiro[4.5]dec-3-en-2-one]
90-100%: Echinocloa crus-galli [1] | Setaria viridis [2] | Lolium multiflorum [3]

O=C1NC2(CCC(F)(F)CC2)C(O)=C1c1cc(-c2ccc(Cl)cc2)ccc1Cl [Example 1-4, 3-(4,4′-Dichlorobiphenyl-3-yl)-8,8-difluoro-4-hydroxy-1-azaspiro[4.5]dec-3-en-2-one]
90-100%: Echinocloa crus-galli [1] | Setaria viridis [2] | Lolium multiflorum [3]

Cc1cc(C)c(C2=C(O)C3(CCC(F)(F)CC3)NC2=O)c(C)c1 [Example I-1-a-1]
90-100%: Echinocloa crus-galli [1] | Alopecurus myosuroides [4] | Setaria viridis [2] | Lolium multiflorum [3]

Cc1cc(OCC(F)(F)F)cc(C)c1C1=C(O)C2(CCC(F)(F)CC2)NC1=O [Example I-1-a-8]
90-100%: all assays above

Cc1cc(-c2ccc(Cl)cc2)cc(C)c1C1=C(O)C2(CCC(F)(F)CC2)NC1=O [Example I-1-a-9]
90-100%: Echinocloa crus-galli [1] | Setaria viridis [2] | Lolium multiflorum [3]

CCc1cc(C)cc(C)c1C1=C(OC(=O)C(C)C)C2(CCC(F)(F)CC2)NC1=O [Example I-1-b-1]
90-100%: Alopecurus myosuroides [5] | Lolium multiflorum [6] | Setaria viridis [7] | Echinocloa crus-galli [8]

CCOC(=O)OC1=C(c2c(C)cc(C)cc2CC)C(=O)NC12CCC(F)(F)CC2 [Example I-1-c-1]
90-100%: all assays above
